Results are given in words; binding and its absence hold for the method and conditions named. Binding seen in cells or lysates may run through a third protein. Here binding means that the protein was enriched with, or labelled near, the bait; the list need not be complete. Where a sequence is shown, tags or fusion partners need not be part of it. Values belong to the binder of their own block, whether it stands above or below them.
Assays:
[1] = target: T1, GFP-AGO1 (ARGONAUTE1 fused to GFP, line pAGO1:GFP-AGO1 ago1-27) (Arabidopsis thaliana) (UniProt O04379); assay: affinity purification with mass spectrometry
T1 sequence: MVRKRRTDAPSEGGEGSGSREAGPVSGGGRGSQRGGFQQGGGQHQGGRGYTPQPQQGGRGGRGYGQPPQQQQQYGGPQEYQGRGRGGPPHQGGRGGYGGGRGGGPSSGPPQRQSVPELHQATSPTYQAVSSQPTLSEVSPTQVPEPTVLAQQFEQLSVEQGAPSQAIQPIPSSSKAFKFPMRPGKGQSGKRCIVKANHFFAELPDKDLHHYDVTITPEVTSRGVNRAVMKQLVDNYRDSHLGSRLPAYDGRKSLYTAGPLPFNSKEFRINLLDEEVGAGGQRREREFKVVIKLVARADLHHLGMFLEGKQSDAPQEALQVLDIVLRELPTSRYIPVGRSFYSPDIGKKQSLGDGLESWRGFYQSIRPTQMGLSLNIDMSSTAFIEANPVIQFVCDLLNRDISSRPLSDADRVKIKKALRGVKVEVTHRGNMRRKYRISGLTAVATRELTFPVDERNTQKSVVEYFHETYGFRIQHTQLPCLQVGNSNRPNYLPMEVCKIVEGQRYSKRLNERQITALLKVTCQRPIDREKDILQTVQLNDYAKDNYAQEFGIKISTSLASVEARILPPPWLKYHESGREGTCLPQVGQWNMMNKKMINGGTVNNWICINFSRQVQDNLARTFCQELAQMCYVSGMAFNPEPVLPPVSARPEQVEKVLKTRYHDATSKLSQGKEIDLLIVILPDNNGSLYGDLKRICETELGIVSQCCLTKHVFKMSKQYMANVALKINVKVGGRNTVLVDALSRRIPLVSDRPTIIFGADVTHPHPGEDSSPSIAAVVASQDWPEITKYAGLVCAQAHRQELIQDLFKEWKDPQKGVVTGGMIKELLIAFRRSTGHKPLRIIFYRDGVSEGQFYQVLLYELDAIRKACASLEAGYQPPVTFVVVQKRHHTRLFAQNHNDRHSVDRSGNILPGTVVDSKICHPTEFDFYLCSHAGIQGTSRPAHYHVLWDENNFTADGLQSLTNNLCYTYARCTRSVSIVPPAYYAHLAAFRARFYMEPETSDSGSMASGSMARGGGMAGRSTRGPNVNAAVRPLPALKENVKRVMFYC

[2] = target: T2, GFP-AGO1 (ARGONAUTE1 fused to GFP, line pAGO1:GFP-AGO1 ago1-27) (Arabidopsis thaliana), O04379; assay: affinity purification with mass spectrometry; details: remark: other sources report otherwise
T2 chain: T1 sequence

- binding [1]: binds
B1: RNA helicase RH53 (protein, UniProt Q9LUW5 82-616)
chain: GFAISESSERRVGDSESVGGDGLAISELGISPEIVKALSSKGIEKLFPIQKAVLEPAMEGRDMIGRARTGTGKTLAFGIPIIDKIIKYNAKHGRGRNPLCLVLAPTRELARQVEKEFRESAPSLDTICLYGGTPIGQQMRQLDYGVDVAVGTPGRVIDLMKRGALNLSEVQFVVLDEADQMLQVGFAEDVEIILEKLPEKRQSMMFSATMPSWIRSLTKKYLNNPLTVDLVGDSDQKLADGITTYSIIADSYGRASIIGPLVTEHAKGGKCIVFTQTKRDADRLSYALARSFKCEALHGDISQSQRERTLAGFRDGHFNILVATDVAARGLDVPNVDLIIHYELPNNTETFVHRTGRTGRAGKKGSAILIYSQDQSRAVKIIEREVGSRFTELPSIAVERGSASMFEGIGSRSGGSFGGGMRDRGSSFGGRSGGGGYGGSSGGYGGGRSGGSSNRYSGDSDRSGFGSFGMRSPEGYGSDRSSQSGGRSSFGGGRSGGSSNNRSSGFGDFGSDRSSQSGGRSSFGGFGSNDGKRSY

- binding [1]: binds
B2: RNA helicase RH8 (protein, UniProt Q8RXK6 1-505)
chain: MNNRGRYPPGIGAGRGAFNPNPNYQSRSGYQQHPPPQYVQRGNYAQNHQQQFQQAPSQPHQYQQQQQQQQQWLRRGQIPGGNSNGDAVVEVEKTVQSEVIDPNSEDWKARLKLPAPDTRYRTEDVTATKGNEFEDYFLKRELLMGIYEKGFERPSPIQEESIPIALTGRDILARAKNGTGKTAAFCIPVLEKIDQDNNVIQAVIIVPTRELALQTSQVCKELGKHLKIQVMVTTGGTSLKDDIMRLYQPVHLLVGTPGRILDLTKKGVCVLKDCSVLVMDEADKLLSQEFQPSVEHLISFLPESRQILMFSATFPVTVKDFKDRFLTNPYVINLMDELTLKGITQFYAFVEERQKIHCLNTLFSKLQINQSIIFCNSVNRVELLAKKITELGYSCFYIHAKMLQDHRNRVFHDFRNGACRNLVCTDLFTRGIDIQAVNVVINFDFPKNAETYLHRVGRSGRFGHLGLAVNLITYEDRFNLYRIEQELGTEIKQIPPHIDQAIYCQ

- binding [2]: binds
B3: UP-…1, Q9FJR0 1-1254 (protein)
chain: MDSQQSDLFDTASQPDTVADEYTFLEFNTQGDSEFDYQDFGSPTAWPTPSDSISIADVADRGEGGAAADHHSEASSPSSLSAGAGNGAKVGRGGVGGSGGVSSSSQVDALAAGVGNLNFEETGDDDGFDYGKNDFTEHACKYCGISNPACVVRCNVASCRKWFCNSRGNTSGSHIVNHLVRAKHKEVCLHRDSPLGETILECYNCGCRNVFLLGFISAKTDSVVVLLCRDPCLNVNALKDMNWDLSQWCPLIDDRCFLPWLVKVPSEQEQLRARQISAQQINKIEELWKTNPDATLEDLEKPGVDDEPQPVQPKYEDAYQYQNVFAPLIKLEADYDKMMKESQSKENLTVRWDIGLNKKRVAYFVFPKEENELRLVPGDELRLRYSGDAVHPSWQSVGHVIKLTAQEEVALELRANQGVPIDVNHGFSVDFVWKSTSFDRMQGAMKNFAVDETSVSGYIYHQLLGHEVEAQMVRNTLPRRFGVPGLPELNASQVNAVKSVLQKPISLIQGPPGTGKTVTSAAIVYHMAKQGQGQVLVCAPSNVAVDQLAEKISATGLKVVRLCAKSREAVSSPVEYLTLHYQVRHLDTSEKSELHKLQQLKDEQGELSSSDEKKYKNLKRATEREITQSADVICCTCVGAADLRLSNFRFRQVLIDESTQATEPECLIPLVLGVKQVVLVGDHCQLGPVIMCKKAARAGLAQSLFERLVTLGIKPIRLQVQYRMHPALSEFPSNSFYEGTLQNGVTIIERQTTGIDFPWPVPNRPMFFYVQLGQEEISASGTSYLNRTEAANVEKLVTAFLKSGVVPSQIGVITPYEGQRAYIVNYMARNGSLRQQLYKEIEVASVDSFQGREKDYIILSCVRSNEHQGIGFLNDPRRLNVALTRARYGIVILGNPKVLSKQPLWNGLLTHYKEHECLVEGPLNNLKQSMVQFQKPRKIYNDRRLFYGGGAGMIGNDNFGSGNPNADRRGSRGRAGGSYLPSGPPNGARPGLHPAGYPIPRVPLSPFPGGPPSQPYAIPTRGPVGAVPHAPQPGNHGFGAGRGTSVGGHLPHQQATQHNVGTIGPSLNFPLDSPNSQPSPGGPLSQPGYGSQAFRDGFSMGGISQDFLADDIKSQGSHDPYNMADFATQASPGGFAVDYATQGAHGAFPGNFMNQNSQGGYSRFSGINDFMSQEYMAHGGQGLFTQAGFIDSSQDDGQQNPYGVNNPNLQSQGLPNSLYSQPFAHYNTQPLNLSGPQQSQPNQSSQNPKHPYNG
